Experimental data: article PMC12431657, “Discovery and mechanistic insights of dibenzoylmethane as a broad spectrum inhibitor of coronavirus” (PLOS Pathogens, 2025)
Counter-ions that a name gives are not always drawn. Like-named read-outs stand apart in the source and are kept apart here. Out of some 3,300 compounds screened, about 95 (3%) showed an effect of 50% or more. Some of the results follow. Peptide text beside a SMILES is read from it.

Test system: HCoV-229E
Set-up: species or system Huh-7; HTS, protection from HCoV-229E induced cell death, luminescent cell viability (CellCounting-Lite 2.0), inhibition rate
Conditions: 24 h post infection, 1 h compound pre-incubation, 10 µM, inhibitor

Row | Compound | 229E Inhibition rate [%] | 229E Inhibition rate (229E Inhibition rate, 24 h) [%]
1 | Nc1nc2c(ncn2[C@@H]2O[C@H](CO)[C@@H](O)[C@H]2O)c(=O)[nH]1 [Guanosine] | 36.7 | –
2 | O=C(O)c1cccc2nc3ccccc3nc12 [Phenazine-1-carboxylic acid] | 16.2 | –
3 | CC(C)=CCC1=CC(=O)c2ccccc2C1=O [Deoxylapachol] | 8.4 | –
4 | COc1cc2c(cc1OC)[C@@H]1Cc3ccc(OC)c(OC)c3CN1CC2 [Tetrahydropalmatine (hydrochloride)] | – | 43.7
5 | O=c1[nH]cnc2c1ncn2[C@@H]1O[C@H](COP(=O)(O)OP(=O)(O)OP(=O)(O)O)[C@@H](O)[C@H]1O [Inosine-5'-triphosphate (trisodium salt)] | 8.5 | –
6 | C=C1C(=O)O[C@@H]2/C=C(/C)[C@@H](OC(C)=O)C/C=C(/C=O)C[C@@H](OC(=O)/C(C)=C/CO)[C@@H]12 [Eupalinolide O] | 19.5 | –
7 | O=c1ccc2ccc(O)cc2o1 [Umbelliferone] | 54.3 | –
8 | Cc1c(C)c2c(c(C)c1O)CC[C@@](C)(CCCC(C)CCCC(C)CCCC(C)C)O2 (stereo in doubt) [rel-α-Vitamin E] | 10.9 | –
9 | O=C(O)c1cccc(O)c1O [Pyrocatechuic acid] | 20.4 | –
10 | CCCCCCCCCCCCCCC(=O)OC [Methyl pentadecanoate] | 17.2 | –
11 | CC1(C)C(=O)[C@]2(C)CC[C@H]1C2 [(-)-Fenchone] | 23.7 | –
12 | C[C@H]1CCC/C=C/[C@@H]2C[C@H](O)C[C@H]2[C@H](O)/C=C/C(=O)O1 [Brefeldin A] | 19.7 | –
13 | Oc1ccc([C@H]2COc3cc(O)ccc3C2)cc1 [(-)-(S)-Equol] | 8.5 | –
14 | C[C@H]1CC[C@@]2(O)C(C)(C)[C@@H]3CC[C@@]2(C)[C@H]1C3 [Patchouli alcohol] | 8.8 | –
15 | CC1=C[C@H]2[C@@H](CC1)[C@H](C)CC[C@H]2[C@@H](C)C(=O)O [Dihydroartemisinic acid] | 10.7 | –
16 | CCC12C=CCN3CC[C@@]4(c5ccc(OC)cc5N(C)[C@H]4[C@@](O)(C(=O)OC)[C@@H]1OC(C)=O)[C@@H]32 (stereo partly shown) [Vindoline] | 10.2 | –
17 | CCCCCCCCCCCCCCCC(=O)OC [Methyl palmitate] | 12.6 | –
18 | O=C(O)c1cc(O)c2c(c1)C(=O)c1cccc(O)c1C2=O [Rhein] | 55.2 | –
19 | COC(=O)C1=CO[C@@H](O)[C@@H]2[C@@H](C)[C@@H](O)C[C@H]12 [Loganetin] | 13.9 | –
20 | O=C(O)c1ccccc1C(=O)O [Phthalic acid] | 24 | –
21 | O=c1cc(-c2ccc(O)cc2)oc2c([C@@H]3O[C@H](CO)[C@@H](O[C@@H]4O[C@H](CO)[C@@H](O)[C@H](O)[C@H]4O)[C@H](O)[C@H]3O)c(O)cc(O)c12 [4”-O-Glucosylvitexin] | 19 | –
22 | O=C[C@@H](O)[C@H](O)[C@@H](O)CO [L-Xylose] | 15.6 | –

Some values from above.
229E Inhibition rate [%] with `CC(C)=CCC1=CC(=O)c2ccccc2C1=O` [Deoxylapachol] is entered as 8.4
229E Inhibition rate [%] with `CCC12C=CCN3CC[C@@]4(c5ccc(OC)cc5N(C)[C@H]4[C@@](O)(C(=O)OC)[C@@H]1OC(C)=O)[C@@H]32` (stereo partly shown) [Vindoline] is entered as 10.2
229E Inhibition rate [%] with `Cc1c(C)c2c(c(C)c1O)CC[C@@](C)(CCCC(C)CCCC(C)CCCC(C)C)O2` (stereo in doubt) [rel-α-Vitamin E] is entered as 10.9

(next part)

Row | Compound | 229E Inhibition rate [%] | 229E Inhibition rate (229E Inhibition rate, 24 h) [%]
23 | CC(C)=CCc1c(O)cc2c(c1O)C(=O)C[C@@H](c1ccc(O)cc1)O2 [(2S)-6-Prenylnaringenin] | 22.5 | –
24 | CC1(C)Oc2cc3oc(=O)ccc3cc2C[C@@H]1O [Decursinol] | 0 | –
25 | COc1ccc2c(C)cc(=O)oc2c1O [7-Methoxy-4-methyl-coumarin-8-ol] | 12.9 | –
26 | O=C(OC[C@H]1O[C@@H](OC(=O)c2cc(O)c(O)c(OC(=O)c3cc(O)c(O)c(O)c3)c2)[C@H](OC(=O)c2cc(O)c(O)c(OC(=O)c3cc(O)c(O)c(O)c3)c2)[C@@H](OC(=O)c2cc(O)c(O)c(OC(=O)c3cc(O)c(O)c(O)c3)c2)[C@@H]1OC(=O)c1cc(O)c(O)c(OC(=O)c2cc(O)c(O)c(O)c2)c1)c1cc(O)c(O)c(OC(=O)c2cc(O)c(O)c(O)c2)c1 [Tannic acid] | 8.9 | –
27 | NC(N)=N[C@@H](CC(=O)O)C(=O)O [Guanidinosuccinic acid] | 40.7 | –
28 | O=C(O)/C=C/CCCCCCCCC(=O)O [Traumatic Acid] | 16 | –
29 | COc1cc(O)c2c(=O)c(O[C@@H]3O[C@H](CO[C@@H]4O[C@@H](C)[C@H](O)[C@@H](O)[C@H]4O)[C@@H](O)[C@H](O)[C@H]3O)c(-c3ccc(OC)c(O)c3)oc2c1 [Ombuoside] | 41.9 | –
30 | CC1(C)[C@H](OC(=O)c2ccccc2)CC[C@]2(C)C3=CC[C@@]4(C)[C@@H]5C[C@](C)(COC(=O)c6ccccc6)CC[C@]5(C)CC[C@]4(C)C3=CC[C@@H]12 [3,29-O-Dibenzoyloxykarounidiol] | 14 | –
31 | C=CC(C)(C)O[C@@H]1O[C@H](CO)[C@@H](O)[C@H](O)[C@H]1O [Crenulatin] | 42.9 | –
32 | COc1ccc2c3c1O[C@H]1C[C@@H](O)C=C[C@@]31CC[N+](C)([O-])C2 (stereo partly shown) [Galanthamine N-Oxide] | 11.6 | –
33 | COc1cccc2c1C(=O)c1c(O)c3c(c(O)c1C2=O)C[C@@](O)(C(=O)CO)C[C@@H]3O[C@H]1C[C@H](N)[C@H](O)[C@H](C)O1 [Doxorubicin (hydrochloride)] | 17.9 | –
34 | CCCCCCCCCCCO [1-Undecanol] | 9.6 | –
35 | CSCC[C@H](NC(C)=O)C(=O)O [N-Acetyl-L-methionine] | 14.8 | –
36 | O=C(O)/C=C/c1ccc2c(c1)OCO2 [(E)-3,4-(Methylenedioxy)cinnamic acid] | – | 30.2
37 | C=C1[C@@H](O)[C@]23C[C@@H]1[C@@H](O)C[C@H]2[C@@]12C4[C@@H]3C[C@@H]1[C@@](C)(CC[C@@H]2O)CN4CC [12-Epinapelline] | 8 | –
38 | COc1cc(CNC(=O)CCCC/C=C/C(C)C)ccc1O[C@@H]1O[C@H](CO)[C@@H](O)[C@H](O)[C@H]1O [Capsaicin β-D-glucopyranoside] | 12.5 | –
39 | CC1(C)O[C@H]2[C@H](O)CC(C(=O)O)=C[C@H]2O1 [3,4-O-Isopropylidene-shikimic acid] | 0 | –
40 | CN[C@@H]1[C@H](O[C@H]2[C@H](O[C@H]3[C@H](O)[C@@H](O)[C@H](N=C(N)N)[C@@H](O)[C@@H]3N=C(N)N)O[C@@H](C)[C@]2(O)C=O)O[C@@H](CO)[C@H](O)[C@H]1O [Streptomycin (sulfate)] | 8.9 | –
41 | CCCCCCCCC[C@H](O)CC(=O)CCc1ccc(O)c(OC)c1 [10-Gingerol] | 32.3 | –
42 | O=C(O)CC(O)C(=O)O (stereo not shown) [Malic acid] | 10.4 | –
43 | CC[C@@H](C)O [(R)-(-)-2-Butanol] | 20.6 | –
44 | C[C@]12CCC(=O)C=C1CC[C@@H]1[C@@H]2[C@@H](O)C[C@@]2(C)[C@H]1CC[C@]2(O)C(=O)CO [Hydrocortisone] | 25.8 | –

Row | Compound | 229E Inhibition rate [%] | 229E Inhibition rate (229E Inhibition rate, 24 h) [%]
45 | O=C(CCc1ccc(O)cc1)c1c(O)cc(O)cc1O[C@@H]1O[C@H](CO)[C@@H](O)[C@H](O)[C@H]1O [Phlorizin] | 10.5 | –
46 | CC(=O)C1=C(O)C=C2Oc3c(C(C)=O)c(O)c(C)c(O)c3[C@@]2(C)C1=O [(+)-Usnic acid] | 4.4 | –
47 | COC(=O)c1cccnc1 [Methyl nicotinate] | 15.3 | –
48 | CC(=O)c1ccc(O)cc1 [4-Hydroxyacetophenone] | 18 | –
49 | CC1(C)CC[C@]2(C(=O)O)CCC3=C([C@@H](CCl)C[C@@H]4[C@@]5(C)C[C@H](O)[C@H](O)[C@@](C)(C(=O)O)[C@@H]5CC[C@@]34C)[C@@H]2C1 [Tenuigenin] | 0 | –
50 | COc1c2ccoc2c(OCC=C(C)C)c2oc(=O)ccc12 [Phellopterin] | 19.4 | –
51 | c1ccc2c(Cc3c[nH]c4ccccc34)c[nH]c2c1 [3,3'-Diindolylmethane] | 15.5 | –
52 | OC1OC[C@@H](O[C@@H]2OC[C@@H](O[C@@H]3OC[C@@H](O[C@@H]4OC[C@@H](O)[C@H](O)[C@H]4O)[C@H](O)[C@H]3O)[C@H](O)[C@H]2O)[C@H](O)[C@H]1O (stereo partly shown) [Xylotetraose] | 21.7 | –
53 | CO[C@H]1c2cc(C(C)C)c(O)c(O)c2[C@@]23CCCC(C)(C)[C@@H]2[C@@H]1OC3=O [7-Methoxyrosmanol] | 21.1 | –
54 | Oc1ccc2c(c1)OCO2 [Sesamol] | 7.6 | –
55 | CCCCCCCCCCCCC [Tridecane] | 11.3 | –
56 | CC(=O)c1ccccc1N [2'-Aminoacetophenone] | 35.9 | –
57 | C[C@]12CC[C@H]3[C@@H](CC=C4C[C@@H](O)CC[C@@]43C)[C@@H]1CC[C@@H]2C(=O)CO [21-Hydroxypregnenolone] | 2.6 | –
58 | C=C1C(=O)O[C@@H]2/C=C(\C)CC/C=C(\C)CC[C@@H]12 [Costunolide] | 30.2 | –
59 | CC(C)[C@H](NC(=O)CN)C(=O)O [Glycyl-L-valine] (H-Gly-Val-OH) | 16.9 | –
60 | CC[C@@]1(O)C(=O)OCc2c1cc1n(c2=O)Cc2cc3ccccc3nc2-1 [Camptothecin] | 7.4 | –
61 | c1ccc(Nc2ccccc2)cc1 [Diphenylamine (hydrochloride)] | 13.5 | –
62 | COc1cc(CC(=O)C(=O)O)ccc1O [Vanilpyruvic acid] | 8.6 | –
63 | C[C@]12CC[C@@H]3c4ccc(O)cc4CC[C@H]3[C@@H]1CC[C@@H]2O [Estradiol] | 37.5 | –
64 | CC(C)(O)[C@H]1CC[C@@](C)([C@H]2CC[C@]3(C)[C@@H]2[C@H](O)C[C@@H]2[C@@]4(C)CC[C@H](O)C(C)(C)[C@@H]4[C@@H](O[C@@H]4O[C@H](CO)[C@@H](O)[C@H](O)[C@H]4O)C[C@]23C)O1 [Pseudoginsenoside RT5] | 13.1 | –
